Source: the supplement of paper PMC7024190
This is one part of the list. Single values are uncertain here, since repeats match poorly.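 A first-round screen of about ten thousand compounds sought those raising reporter output, using human embryonic kidney cells briefly transfected with a plasmid carrying a Renilla luciferase gene driven by the HSV-TK promoter.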

The compounds below were run on HEK 293FT (assay: log relative Renilla luciferase luminescence (reporter expression vs reference, reference not stated) (log (base not stated)); higher = higher recombinant reporter expression). Conditions: 10 µM; time after transfection 48 h.
Procedure: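 HEK 293FT cells transiently transfected with pRL-TK (Renilla luciferase) were treated with compounds at 10 uM and luminescence was read about 42 h later. Values are log relative Renilla luminescence (log base and reference not stated). Single-pass screen; ICCB Known Bioactives library.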

SMILES	log
CC[C@@H]1/C=C/C=C/C[C@H](C)[C@H](O)[C@](C)(O)C(=O)[C@H](C)[C@@H](O)[C@H](C)C(=O)[C@H](C)[C@@H](O)[C@H](C)/C=C/C(=O)O[C@H]2[C@@H](C)[C@@H](CC1)O[C@@]1(CC[C@@H](C)[C@@H](C[C@H](C)O)O1)[C@@H]2C [Oligomycin A]	-0.552
O[C@H]1[C@H]2[C@H](O)CCCN2C[C@H]1O [Swainsonine]	-0.038
CCCCC/C=C\C/C=C\C/C=C\C/C=C\CCCC(=O)NCC(=O)O [N-Arachidonoylglycine]	0.046
CC1(C)C(C=C(Cl)Cl)C1C(=O)OC(C#N)c1cccc(Oc2ccccc2)c1 (stereo not given) [Cypermethrin]	-0.158
O=C1C=CC(=O)c2c(O)cccc21 [Juglone]	0.284
CO/C1=C\C(C)=C\[C@@H](C)[C@@H](O)[C@@H](C)C/C(C)=C/C=C/[C@H](OC)[C@@H]([C@@H](C)[C@@H](O)[C@H](C)[C@@]2(O)C[C@@H](O)[C@H](C)[C@@H](C(C)C)O2)OC1=O [Bafilomycin A1]	-0.474
C[C@H]1CCC/C=C/[C@@H]2C[C@H](O)C[C@H]2[C@H](O)/C=C/C(=O)O1 [Brefeldin A]	-0.7
CC(C)(O)[C@H]1O[C@H]2CC[C@@]3(C)[C@@](O)(CC[C@H]4Cc5c([nH]c6ccccc56)[C@@]43C)C2=CC1=O [Paxilline]	0.0758
C=C(C)[C@H]1O[C@H]2CC[C@@]3(C)[C@@](O)(CC[C@H]4[C@@H]5OC(C)(C)[C@H]6C[C@@H]7C(=C)Cc8c(Cl)cc9[nH]c(c5c9c8[C@@]76O)[C@@]43C)[C@@]23O[C@H]3[C@H]1O [Penitrem A]	0.337
COC(=O)[C@@]1(O)C[C@H]2O[C@]1(C)n1c3ccccc3c3c4c(c5c6ccccc6n2c5c31)C(=O)NC4	0.251
O=C1C2CCN(CC2)C1(CO)CO	-0.13
C/C1=C/C(=O)O[C@@H]2C[C@@H](CC[C@H](C)/C=C\CC1)O[C@@](O)([C@@H]1CSC(=O)N1)C2 [Latrunculin B]	0.311
CC(C)(c1ccc(OCC2CO2)cc1)c1ccc(OCC2CO2)cc1 (stereo not given)	-0.00904
COC[C@@H]([C@H](O)[C@H](O)C(=O)NCC[C@H](C)c1nc(/C=C/C[C@@H]2O[C@]3(C[C@@H](O)[C@@H]2C)O[C@H]([C@H](C[C@H](O)[C@H](C)[C@H](O)[C@H](C)/C=C(C)/C(C)=C/C=C/C(C)=C\C#N)OC)[C@H](OP(=O)(O)O)C3(C)C)co1)N(C)C [Calyculin A]	-1.45
O=c1c2ccccc2[se]n1-c1ccccc1 [Ebselen]	-0.447
CCCCCCCCCCCCCCCC(=O)OCC(COP(=O)([O-])OCC[N+](C)(C)C)OC(C)=O (stereo not given)	0.228
Nc1ccncc1 [4-Aminopyridine]	-0.00816
O=C1CSC(c2ccccc2Cl)c2cc(Cl)ccc2N1 (stereo not given)	-0.291
CCCCCCCCCCCCCC(=O)O[C@@H]1[C@@H](C)[C@@]2(O)[C@@H](C=C(CO)C[C@]3(O)C(=O)C(C)=C[C@@H]23)[C@@H]2C(C)(C)[C@]12OC(C)=O [Phorbol 12 myristate 13 acetate]	-0.242
C[C@H](N)C(=O)N[C@@H](C)C(=O)N[C@@H](Cc1ccccc1)C(=O)CCl	0.163

SMILES	log
O=c1[nH]c2ccccc2n1C1CCN(CCCC(c2ccc(F)cc2)c2ccc(F)cc2)CC1 [Pimozide]	-0.49
CC(C)[C@@]1(O)[C@@H](OC(=O)c2ccc[nH]2)[C@@]2(O)[C@@]3(C)C[C@]4(O)O[C@@]5([C@H](O)[C@@H](C)CC[C@]35O)[C@@]2(O)[C@@]14C [Ryanodine]	0.0589
COc1cccc2c1cc([N+](=O)[O-])c1c(C(=O)O)cc3c(c12)OCO3 [Aristolochic acid]	-0.562
COc1ccc2c(c[n+](C)c3c4cc5c(cc4ccc23)OCO5)c1OC [Chelerythrine]	-0.159
C[C@@H]1C[C@@H]([C@H](O)CC2CC(=O)NC(=O)C2)C(=O)[C@@H](C)C1 [Cycloheximide]	-1.75
COC1=CC(=O)O[C@@H](/C=C/c2ccccc2)C1 (racemic) [Kavain (±)]	-0.109
CCCCC/C=C\C/C=C\C/C=C\C/C=C\CCCC(=O)N[C@H](C)CO [(R)-Methanandamide]	-0.126
N#C/C(=C\c1ccc(O)c(O)c1)C(N)=S [AG213 (Tyrphostin 47)]	0.0955
CCCCC/C=C\C/C=C\C/C=C\C/C=C\CCCC(=O)NCCO [Anandamide (22:4,n-6)]	0.195
CC(C)[C@]12O[C@H]1[C@@H]1O[C@]13[C@]1(O[C@H]1C[C@H]1C4=C(CC[C@@]13C)C(=O)OC4)[C@@H]2O [Triptolide]	-1.32
NCCc1c[nH]c2ccc(O)cc12 [Serotonin]	0.0238
CO[C@H](C/C=C\C=C\CC/C=C/C[C@H](C)/C=C/C(=C\C(=O)O)CC(=O)O)/C(C)=C\C=C(/C)C(=O)O [Bongkrekic acid]	-0.264
CCCCC/C=C\C/C=C\C/C=C\C/C=C\CCCC(=O)NCc1ccc(O)c(OC)c1 [Arvanil]	-0.121
CCCCC[C@@H](/C=C/C=C\C/C=C\C/C=C\CCCC(=O)O)OO	0.116
CO[C@@H]1C[C@@H](C[C@H]2CC[C@H](C)[C@H]([C@@H](C)C(=O)O)O2)O[C@]2(O[C@](C)([C@H]3CC[C@@](C)([C@@H]4O[C@@H]([C@H]5O[C@@](O)(CO)[C@H](C)C[C@@H]5C)C[C@@H]4C)O3)C[C@H]2C)[C@@H]1C [Nigericin]	-0.577
CCCCCCCCCCCCCCCCOCC(COP(=O)([O-])OCC[N+](C)(C)C)OC(C)=O (stereo not drawn) [Enantio-PAF C16]	-0.0865
CCCCC/C=C\C/C=C\C/C=C\C/C=C\CCCC(N)=O [Arachidonamide]	0.0206
CC1=C2C[C@H]3[C@@H](CC=C4C[C@@H](O)CC[C@@]43C)[C@@H]2CC[C@]12O[C@@H]1C[C@H](C)CN[C@H]1[C@H]2C [Cyclopamine]	0.0491
C[C@@]1(CO)[C@H](O)CC[C@@]2(C)[C@H]1CC[C@H]1C[C@@H]3C[C@@]12CC[C@]3(O)CO [Aphidicolin]	-0.25
CC(=O)c1c(O)c(C)c(O)c(Cc2c(O)c3c(c(C(=O)/C=C/c4ccccc4)c2O)OC(C)(C)C=C3)c1O [Rottlerin]	-0.705

An excerpt of these results, with bars between the fields.
SMILES | log
NCCc1c[nH]c2ccc(O)cc12 [Serotonin] | 0.0238
CO[C@H](C/C=C\C=C\CC/C=C/C[C@H](C)/C=C/C(=C\C(=O)O)CC(=O)O)/C(C)=C\C=C(/C)C(=O)O [Bongkrekic acid] | -0.264
